The text below walks through data of EP4475229A1, “QUINONE-TYPE MOLECULES FOR ZINC-ION AQUEOUS BATTERIES” (Centre National de la Recherche Scientifique, priority 2023, dated 2024).

Each structure is given as a SMILES string. Like-named read-outs stand apart in the source and are kept apart here. Some entries repeat one wording, which the source may state once for all of them.

Series [1] in a line: Cycling tests of quinone electrodes (cyclic voltammetry, galvanostatic cycling), capacity and capacity loss.
For series [2] the following is noted: vs. the maximum observed capacity, cited from earlier work.
The mark [3] stands for this setting: galvanostatic cycling 0.1 A/g, R close to 1.2 mg/ml, zinc acetate based aqueous electrolytes (30K3Li3Zn).

`CC(C)(C)C1=CC(=O)C(C(C)(C)C)=CC1=O` [compound 1]: in series [1] (vs. the maximum observed capacity, 1.25 M Zn(CH3COO)2, pH 4-5, 1.2 mg/ml active material/electrolyte), the “Observed ΔQloss upon 100h cycling” value is reported as around 0%.

Take `CC(C)(C)c1cc(O)c(C(C)(C)C)cc1O` [compound 2]: the “capacity reached over a few tens of cycles” value in series [1] (galvanostatic cycling 0.1 A/g, R 1.2 mg/ml, 1.25 M ZnOAc) turned out to be 130 mAh/g; in series [1] (galvanostatic cycling 0.1 A/g, R 1.2 mg/ml, 30K3Li3Zn) it was 180 mAh/g. For the same molecule, the “capacity at start of cycling” value in series [1] (galvanostatic cycling 0.1 A/g, R 1.2 mg/ml, 30K3Li3Zn and 1.25 M ZnOAc) is recorded as “roughly 100 mAh/g”.

`Cc1ccc(C2=CC(=O)C=CC2=O)cc1` [compound 14, 2-(4-Tolyl)-1,4-benzoquinone]: the “capacity retention on cycling” value in series [1] (setting [3]) is reported as “cannot prevent the loss of the initial capacity”.

For `CC(C)C1=C(Cl)C(=O)C(C(C)C)=C(Cl)C1=O` [compound 9, 2,5-Dichloro-3,6-bis(1-methylethyl)-2,5-cyclohexandiene-1,4-dione], the “capacity retention on cycling” value in series [1] (galvanostatic cycling 0.1 A/g, R ~ 1.2 mg/ml, 30K1Zn, 30K3Li3Zn and 30K5Zn electrolytes) is given as “cannot prevent the loss of initial capacity on cycling”.

For `NC1=C(N)C(=O)C(N)=C(N)C1=O` [TABQ], the “Observed ΔQloss upon 100h cycling” value in series [2] (1M ZnSO4, pH 4-5, ref [1]) is on record as around 30%.

Turning to `CC(C)(C)c1cc(O)ccc1O` [compound 8], in series [1] (setting [3]), the “capacity retention on cycling” value is given as “cannot prevent the loss of the initial capacity”.

As for `O=C1C=CC(=O)C(c2ccccc2)=C1` [compound 13, Phenyl-1,4-benzoquinone], the “capacity retention on cycling” value in series [1] (setting [3]) is reported as “cannot prevent the loss of the initial capacity”.

With `O=c1c(=O)c2cccc3c2-c2c1cccc2c(=O)c3=O` [PTO], the “Observed ΔQloss upon 100h cycling” value was around 43% in series [2] (2M ZnSO4, pH 4-5, ref [4], 16.7 mg/ml); around 85% in series [2] (2.5M Li2SO4, pH 7, ref [5]); around 0% in series [2] (4.4M H2SO4, pH 0, ref [5]).
